Consider two molecules from paper PMC5844915.

Amino acid sequences for entries named in this document (tags omitted).
UniProt Q8WWM9: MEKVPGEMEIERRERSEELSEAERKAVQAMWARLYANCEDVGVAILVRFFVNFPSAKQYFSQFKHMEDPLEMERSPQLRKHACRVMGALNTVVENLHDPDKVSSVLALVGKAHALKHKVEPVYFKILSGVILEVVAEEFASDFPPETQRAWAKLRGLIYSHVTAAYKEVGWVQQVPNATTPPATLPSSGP
UniProt O15392: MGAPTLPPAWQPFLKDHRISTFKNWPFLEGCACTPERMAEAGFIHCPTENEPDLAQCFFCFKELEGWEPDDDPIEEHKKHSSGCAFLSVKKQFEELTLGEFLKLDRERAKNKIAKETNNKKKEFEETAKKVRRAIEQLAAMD

These are yes or no findings as the source states them, for the method shown. In cells and extracts the contact can be indirect. Some results given as binding are weak or reduced against the parent protein; the word gives no strength.

In experiment [1] the target is T1, iRHOM2 (human (endogenous in control keratinocytes)) (UniProt Q6PJF5).
T1 sequence: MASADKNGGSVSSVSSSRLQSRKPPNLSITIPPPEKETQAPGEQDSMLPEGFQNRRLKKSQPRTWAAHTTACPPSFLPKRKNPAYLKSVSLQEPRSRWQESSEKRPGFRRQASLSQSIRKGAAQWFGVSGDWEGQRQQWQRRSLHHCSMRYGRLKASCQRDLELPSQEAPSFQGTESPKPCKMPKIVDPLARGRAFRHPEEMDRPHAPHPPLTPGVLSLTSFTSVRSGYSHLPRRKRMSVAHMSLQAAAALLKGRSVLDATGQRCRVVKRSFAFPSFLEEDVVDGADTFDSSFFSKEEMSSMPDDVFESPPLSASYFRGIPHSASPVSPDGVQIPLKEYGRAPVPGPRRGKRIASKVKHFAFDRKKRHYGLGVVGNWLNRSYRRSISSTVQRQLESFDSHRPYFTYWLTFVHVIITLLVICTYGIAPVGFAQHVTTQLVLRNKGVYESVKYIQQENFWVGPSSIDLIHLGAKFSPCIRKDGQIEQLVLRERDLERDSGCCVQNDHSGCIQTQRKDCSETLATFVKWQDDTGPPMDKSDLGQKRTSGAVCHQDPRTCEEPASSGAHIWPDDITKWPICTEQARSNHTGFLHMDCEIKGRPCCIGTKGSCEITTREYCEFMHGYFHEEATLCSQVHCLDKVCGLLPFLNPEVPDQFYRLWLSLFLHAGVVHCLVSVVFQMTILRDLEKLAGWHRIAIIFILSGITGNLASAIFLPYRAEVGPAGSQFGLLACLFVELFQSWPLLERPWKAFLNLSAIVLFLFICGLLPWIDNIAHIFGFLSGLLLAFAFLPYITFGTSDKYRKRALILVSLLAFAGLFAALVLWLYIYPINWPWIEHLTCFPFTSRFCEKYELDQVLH
Description: co-IP; endogenous proteins; 2 mg control keratinocyte lysate with 2 µg antibody and Sepharose protein G overnight at 4 °C; washed in NP-40 wash buffer (50 mM Tris pH 8.0, 150 mM NaCl, 1 mM EDTA, 1% NP40); rabbit IgG as control; immunoblot. On the technique in general: In western blotting, separated proteins are transferred to a membrane and probed.

The target in experiment [2] is Cytoglobin (human (endogenous in control keratinocytes)) (UniProt Q8WWM9). In words: proximity ligation; Duolink in situ kit on fixed control keratinocytes (methanol acetone or PFA); primary antibodies overnight at 4 °C; confocal microscopy; no primary antibodies as negative control.
The target is the same in experiment [3]. In words: co-IP; endogenous proteins; 2 mg control keratinocyte lysate with 2 µg antibody and Sepharose protein G overnight at 4 °C; washed in NP-40 wash buffer (50 mM Tris pH 8.0, 150 mM NaCl, 1 mM EDTA, 1% NP40); rabbit IgG as control; immunoblot.
Experiment [4] has as its target SURVIVIN (human (endogenous in control keratinocytes)) (UniProt O15392). The experiment is described as above.

Take SURVIVIN (from UniProt O15392 1-142): the binding entry in experiment [1] is “binds”.

B1: iRHOM2 (protein, UniProt Q6PJF5 1-856)
chain: MASADKNGGSVSSVSSSRLQSRKPPNLSITIPPPEKETQAPGEQDSMLPEGFQNRRLKKSQPRTWAAHTTACPPSFLPKRKNPAYLKSVSLQEPRSRWQESSEKRPGFRRQASLSQSIRKGAAQWFGVSGDWEGQRQQWQRRSLHHCSMRYGRLKASCQRDLELPSQEAPSFQGTESPKPCKMPKIVDPLARGRAFRHPEEMDRPHAPHPPLTPGVLSLTSFTSVRSGYSHLPRRKRMSVAHMSLQAAAALLKGRSVLDATGQRCRVVKRSFAFPSFLEEDVVDGADTFDSSFFSKEEMSSMPDDVFESPPLSASYFRGIPHSASPVSPDGVQIPLKEYGRAPVPGPRRGKRIASKVKHFAFDRKKRHYGLGVVGNWLNRSYRRSISSTVQRQLESFDSHRPYFTYWLTFVHVIITLLVICTYGIAPVGFAQHVTTQLVLRNKGVYESVKYIQQENFWVGPSSIDLIHLGAKFSPCIRKDGQIEQLVLRERDLERDSGCCVQNDHSGCIQTQRKDCSETLATFVKWQDDTGPPMDKSDLGQKRTSGAVCHQDPRTCEEPASSGAHIWPDDITKWPICTEQARSNHTGFLHMDCEIKGRPCCIGTKGSCEITTREYCEFMHGYFHEEATLCSQVHCLDKVCGLLPFLNPEVPDQFYRLWLSLFLHAGVVHCLVSVVFQMTILRDLEKLAGWHRIAIIFILSGITGNLASAIFLPYRAEVGPAGSQFGLLACLFVELFQSWPLLERPWKAFLNLSAIVLFLFICGLLPWIDNIAHIFGFLSGLLLAFAFLPYITFGTSDKYRKRALILVSLLAFAGLFAALVLWLYIYPINWPWIEHLTCFPFTSRFCEKYELDQVLH
With B1, the binding result in experiment [2], in experiment [3] and in experiment [4] was “binds” throughout.
